Laboratory results published in US20040229241A1, “Cloned mammalian polyamine oxidase” (priority 2001, published 2004).

System: NCI A549 cells
Assay: Intracellular polyamine and analogue content of NCI A549 cells (HPLC)
Assay type: cell-based, human
Conditions: NCI A549, 10 μM, 24 h
Source text: Total cellular RNA was extracted from the lung cancer cell lines using Trizol reagent (Invitrogen) according to the manufacturer's protocol. For Northern blotting, total RNA (20 lg) was separated on a denaturing 1.5% agarose gel containing 6% formaldehyde and transferred to Zetaprobe membrane (Bio-Rad). Random primer- labeled PAOh1 cDNA was used as probe to estimate PAOh1/SMO expression. Blots were stripped and reprobed with an 18S ribosomal cDNA to provide a loading control. Analysis of polyamine content, SSAT and PAOh1/SMO activity. Intracellular polyamine concentrations were determined using the precolumn dansylation labeling, reverse-phase high-pressure liquid chromatography method as described by Kabra et al. using 1,7-diaminoheptane as an internal standard. Polyamine concentrations are reported as nanomoles per milligram protein for each sample, where lysate protein content was measured by the method of Bradford. SSAT activity of cellular extracts was measured as previously described. […] The PAOh1/SMO assays were performed in the presence of 1.0 mM pargyline and 0.1 mM semicarbizide as inhibitors of monoamine oxidase (MAO) and diamine oxidase (DAO), respectively.

SMILES: CCNCCCNCCCNCCCNCC [BENSpm, N^1,N^11-bis(ethyl)norspermine]
- Analogue (intracellular accumulation): 49.4 ± 9.8 nmol/mg protein

SMILES: CCNCCCNCCCNCCCNCC1CC1 [CPENSpm, N^1-ethyl-N^11-(cyclopropyl) methyl-4,8,diazaundecane]
- Analogue (intracellular accumulation): 17.8 ± 1.4 nmol/mg protein
